According to PMC6535728 (Therapeutic Advances in Medical Oncology, 2019):

Experiments:
[1] = tested on: cKIT phosphorylation in GIST-T1; conditions: GIST-T1, 1 h treatment, immunoblot
[2] = tested on: cKIT phosphorylation in GIST-882; conditions: GIST-882, 1 h treatment, immunoblot
[3] = tested on: phospho-cKIT and phospho-Histone H3 in patient D primary cells; conditions: 1 μM, 6 h

SMILES: CNC(=O)c1ccccc1Sc1ccc2c(/C=C/c3ccccn3)n[nH]c2c1 [Axitinib, axitinib]
- Inhibition of phospho-cKIT Y719, Y703, and Y823 [1]: potently inhibit
- Inhibition of phospho-cKIT Y719, Y703, and Y823 [2]: potently inhibit
- Inhibition of phospho-Histone H3 [3]: potently inhibited
- Inhibition of phospho-cKIT [3]: potently inhibited
